# Experiments:
# Rat brain = test: [3H] muscimol binding, rat brain (previous assays of the inventors)
# From the text: Table 2 presents the Kd and Bmax values for [^3 H] muscimol binding. Data for housefly heads are from Lunt et al. (1985) Neurochem. Int. 7:751. Data for rat brain were obtained from previous assays performed by the present inventors using standard methods.
# Table 3 presents IC50 values for the tested compounds which include known GABAA agonists and antagonists, GABAB agonists and antagonists, and a GABAC agonist. […]
# Housefly heads = conditions: half-maximal displacement of [3H] muscimol, from Lunt et al. (1985); read-out: IC50, Fly Heads; cited from earlier work
compound,measurement,setting,value
"NCCCC(=O)O [GABA, γ-aminobutyric acid]",IC50,Rat brain,255 nM
same,IC50,Housefly heads,40 nM

# Reference: patent US5854002A (Rhone Poulenc, Inc., priority 1996, dated 1998)
